Measurements reported in PubChem BioAssay AID445 (National Center for Advancing Translational Sciences (NCATS), 2006).
The list shows a part of the results. Further columns of the screen follow, without active or inactive calls. The list favours compounds with an active or inconclusive main result. Potencies come from curve fits of mixed quality, noted in brackets.

Assay: IkB Signaling
Details: ABC-DLBCL IkBa-CBG/CBR dual luciferase ratio (green luciferase fused to IkBa over red control in OCI-Ly3 lymphoma cells), 4 h
Outline: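 Luminescence ratio of IκBα-fused green versus native red beetle luciferase in OCI-Ly3 cells, 4 h post-doxycycline with compound; red signal alone, scaled from basal (0%) to zero light (-100%), flagged nonspecific or cytotoxic effects.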

[1] = measured here: control luc red channel unless noted
[2] = measured here: IkB-luc green channel
[3] = measured here: control luc red channel

**Q.** Which AC50 [1] does the source give for `CC(=O)[C@@H]1[C@@H]2C(=O)N(Cc3ccccc3)C(=O)[C@@H]2C2c3ccccc3C=CN21` (stereo not given in full) here?
**A.** 12.6 µM [falling, partial curve]

**Q.** With `COc1ccc(NC(=O)c2c(C)oc3ccc(O)c(CN4CCCC(C)C4)c23)cc1` (stereo not given) as the compound, how does the AC50 [1] read?
**A.** 25.1 µM [falling, single point]

**Q.** Which AC50 [1] does the source give for `COc1ccc(NC(=O)c2oc3ccccc3c2NC(=O)c2cc(OC)c(OC)c(OC)c2)cc1` here?
**A.** 7.94 µM [falling, partial curve]

**Q.** Which AC50 [1] does the source give for `COc1ccc(CCNC(=O)CN2C(=O)COc3ccccc32)cc1OC` here?
**A.** 0.0126 µM [falling, full curve, poor fit]

**Q.** For `COc1ccccc1N1CCN(c2nc3ccccc3n3nnnc23)CC1`, which AC50 [1] is on record?
**A.** 0.398 µM [falling, full curve]

**Q.** Which AC50 [1] does the source give for `Cc1cc(C)cc(OCC(=O)NCC2(N3CCOCC3)CCCCC2)c1` here?
**A.** 39.8 µM [falling, single point]

**Q.** For `c1cncc(-c2nnc(SCc3cccc4ccccc34)o2)c1`, which AC50 [1] is on record?
**A.** 6.31 µM [falling, single point]

**Q.** With `Cc1ccc(S(=O)(=O)Nc2cc3c(C(=O)OCc4ccccc4)c(C)oc3c3ccccc23)cc1` as the compound, how does the AC50 [1] read?
**A.** 15.8 µM [falling, single point]

**Q.** For `Cc1ccc(CSc2ncccc2C(=O)O)cc1`, which AC50 [1] is on record?
**A.** 5.01 µM [rising, full curve]

**Q.** For `COc1cccc(-c2nc(CS(=O)(=O)CC(=O)NCCCc3ccccc3)c(C)o2)c1`, which AC50 [1] is on record?
**A.** 39.8 µM [falling, single point]

**Q.** With `CCN(CC)c1ccc(NC(=O)c2sc3nc(-c4ccccc4)cn3c2C)cc1` as the compound, how does the AC50 [1] read?
**A.** 3.98 µM [falling, full curve]

**Q.** With `CCOC(=O)c1cccc(NC(=O)NCc2ccc3c(c2)CCN3C(=O)CC)c1` as the compound, how does the AC50 [1] read?
**A.** 10 µM [falling, partial curve]

**Q.** With `Cc1nc(-c2ccc(F)cc2)sc1CCNC(=O)C(=O)Nc1ccc2c(c1)OCO2` as the compound, how does the AC50 [1] read?
**A.** 15.8 µM [rising, partial curve]

**Q.** For `CCOC(=O)N1CCC(Nc2nc3ccccc3n3nnnc23)CC1`, which AC50 [1] is on record?
**A.** 0.501 µM [falling, full curve]

**Q.** Which AC50 [1] does the source give for `Cn1cc(SCC(=O)Nc2nc3ccccc3s2)c2ccccc21` here?
**A.** 10 µM [falling, partial curve]

**Q.** Which AC50 [1] does the source give for `CCCN(C(=O)NCc1noc2ccc(C)cc12)c1ccc(Cl)c(Cl)c1` here?
**A.** 15.8 µM [falling, partial curve]

**Q.** For `Cc1ccc(Cl)cc1NC(=O)C1CCCN(S(=O)(=O)c2c(C)noc2/C=C/N(C)C)C1` (stereo not given), which AC50 [1] is on record?
**A.** 25.1 µM [falling, partial curve]

**Q.** Which AC50 [1] does the source give for `O=C(Nc1ccccc1C(=O)OCc1cc(=O)n2ccsc2n1)c1cccc(F)c1` here?
**A.** 3.98 µM [rising, partial curve]

**Q.** With `Cc1ccc2nc(/C(C#N)=C/c3ccc(-c4ccc(F)cc4F)o3)[nH]c2c1` as the compound, how does the AC50 [1] read?
**A.** 6.31 µM [falling, full curve]

**Q.** For `Cc1c(CCC(=O)NCCc2ccccc2F)c(=O)oc2cc(O)ccc12`, which AC50 [1] is on record?
**A.** 39.8 µM [falling, single point]

**Q.** Which AC50 [1] does the source give for `O=C(c1ccc(CSc2nc3ccncc3n2Cc2ccccc2F)cc1)N1CCCCC1` here?
**A.** 31.6 µM [falling, partial curve]

**Q.** For `CCOc1ccccc1Nc1sc(C(=O)c2ccc(Cl)cc2)c(N)c1C#N`, which AC50 [1] is on record?
**A.** 12.6 µM [rising, partial curve]

**Q.** Which AC50 [1] does the source give for `O=C(NCCc1ccccc1)c1cc(-c2ccccc2)nc2n[nH]c(-c3ccccc3)c12` here?
**A.** 0.794 µM [falling, full curve]

**Q.** Which AC50 [1] does the source give for `C=CCn1c(C#N)c(N)sc1=N` here?
**A.** 25.1 µM [falling, partial curve]

**Q.** Which AC50 [1] does the source give for `CN(C)c1ccc(/C=C(\C#N)c2nc3ccccc3c(=O)[nH]2)cc1` here?
**A.** 6.31 µM [falling, full curve]

**Q.** Which AC50 [1] does the source give for `COCc1cc(=O)n2c(-c3ccc(C)cc3)n[nH]c2n1` here?
**A.** 5.01 µM [falling, full curve]

**Q.** For `CCC(C)n1c(=N)c(S(=O)(=O)c2ccccc2)cc2c(=O)n3ccccc3nc21` (stereo not given), which AC50 [1] is on record?
**A.** 0.2 µM [rising, full curve]

**Q.** For `O=C(CSc1nc(O)cc(=O)n1-c1ccccc1)N1CCCCC1`, which AC50 [1] is on record?
**A.** 10 µM [falling, partial curve]

**Q.** With `COc1cc2nc(SCc3ccc(F)cc3)n3nc(CCn4c(C)nc5ccccc54)nc3c2cc1OC` as the compound, how does the AC50 [1] read?
**A.** 31.6 µM [rising, partial curve] [measured here: IkB-luc green channel]

**Q.** Which AC50 [1] does the source give for `C=CCn1c(SCC(=O)N2CCN(c3ccc(F)cc3)CC2)nnc1-c1ccco1` here?
**A.** 20 µM [falling, partial curve]

**Q.** With `CCC(Sc1nc(C)cc(=O)[nH]1)C(=O)Nc1sc2c(c1C#N)CCCC2` (stereo not given) as the compound, how does the AC50 [1] read?
**A.** 10 µM [falling, partial curve]

**Q.** Which AC50 [1] does the source give for `CCOC(=O)c1cnc(-n2nc(C)cc2C)nc1NC(C)c1ccccc1` (stereo not given) here?
**A.** 12.6 µM [falling, partial curve]

**Q.** With `COc1ccc(CCCc2nnc(SCC(=O)Nc3ccc(C)c(C)c3)o2)cc1` as the compound, how does the AC50 [1] read?
**A.** 20 µM [falling, partial curve]

**Q.** Which AC50 [1] does the source give for `CC(C)NS(=O)(=O)c1ccc(OCC(=O)N2CCN(c3ccccc3F)CC2)cc1` here?
**A.** 31.6 µM [falling, single point]

**Q.** Which AC50 [1] does the source give for `NC(=O)c1ccsc1NC(=O)COc1ccccc1` here?
**A.** 7.94 µM [falling, partial curve]

**Q.** With `O=C(c1ccc(CS(=O)c2ccccc2Cl)o1)N1CCN(c2ccccc2F)CC1` (stereo not given) as the compound, how does the AC50 [1] read?
**A.** 31.6 µM [falling, single point]

**Q.** With `COc1cccc(C(=O)N(Cc2cccc(Cl)c2)Cc2ccco2)c1` as the compound, how does the AC50 [1] read?
**A.** 12.6 µM [falling, partial curve]

**Q.** For `c1ccc2c(c1)CCCN2c1nc2ccccc2n2cnnc12`, which AC50 [1] is on record?
**A.** 20 µM [falling, partial curve]

**Q.** For `CC(C)(C)c1ccc(OCC(=O)Nc2c(C(=O)c3ccc(F)cc3)oc3ccccc23)cc1`, which AC50 [1] is on record?
**A.** 20 µM [rising, single point]

**Q.** With `N#CC1=C(N)SC(N)=C(C#N)C1CCc1ccccc1` as the compound, how does the AC50 [2] read?
**A.** 25.1 µM [falling, single point]

**Q.** What about the AC50 [3] of the same compound?
**A.** 10 µM [falling, partial curve]

**Q.** Which AC50 [1] does the source give for `COc1cc(C(=O)NCCSc2c(-c3ccccc3)[nH]c3ccccc23)cc(OC)c1OC` here?
**A.** 3.16 µM [falling, full curve]

**Q.** Which AC50 [1] does the source give for `COc1ccc2[nH]cc(CCNc3nc(-c4cccc(NS(C)(=O)=O)c4)nc4ccccc34)c2c1` here?
**A.** 2.51 µM [falling, partial curve] [measured here: IkB-luc green channel]

**Q.** Which AC50 [1] does the source give for `COc1ccc(N2CCN(C(c3cccs3)C(C)NC(=O)c3ccco3)CC2)cc1` (stereo not given) here?
**A.** 31.6 µM [falling, partial curve]

**Q.** What does the source list for `C=CC(=O)OCCOCCOC(=O)C=C`?
**A.** AC50 [2]: 3.98 µM [rising, full curve]; AC50 [3]: 20 µM [falling, partial curve]

**Q.** With `CC1CCN(S(=O)(=O)c2ccc3c(c2)N(CC(=O)N2CCN(c4ccc(Cl)cc4)CC2)C(=O)CO3)CC1` as the compound, how does the AC50 [1] read?
**A.** 15.8 µM [falling, partial curve]

**Q.** Which AC50 [1] does the source give for `Cc1ccc2cc(CN(Cc3ccco3)C(=O)c3ccccc3)c(=O)[nH]c2c1C` here?
**A.** 25.1 µM [falling, partial curve]

**Q.** For `COc1ccc2[nH]cc(CCNC(=O)Nc3ccc(F)cc3)c2c1`, which AC50 [1] is on record?
**A.** 3.16 µM [falling, partial curve]

**Q.** For `Cc1ccc(C)c(N2CCN(C(=O)c3cc(S(=O)(=O)N4CCCCC4)cn3C)CC2)c1`, which AC50 [1] is on record?
**A.** 39.8 µM [falling, single point]

**Q.** For `O=C(c1ccc(CSc2nc3ccncc3n2Cc2ccccc2F)cc1)N1CCCCCC1`, which AC50 [1] is on record?
**A.** 25.1 µM [falling, single point]

**Q.** With `CC(C)S(=O)(=O)c1oc(-c2ccc(F)cc2)nc1S(=O)(=O)c1ccc(F)cc1` as the compound, how does the AC50 [1] read?
**A.** 2 µM [falling, full curve]

**Q.** With `Cc1cccc(OCC(=O)N(Cc2cccc(Cl)c2)Cc2ccco2)c1C` as the compound, how does the AC50 [1] read?
**A.** 25.1 µM [falling, partial curve]

**Q.** With `O=C1COc2ccc(C(=O)CSc3nnc(-c4cccs4)n3Cc3ccccc3)cc2N1` as the compound, how does the AC50 [1] read?
**A.** 7.94 µM [falling, partial curve]

**Q.** For `Cc1ccc(S(=O)(=O)c2nc(-c3ccccc3)oc2N2CCCCCC2)cc1`, which AC50 [1] is on record?
**A.** 31.6 µM [falling, partial curve]

**Q.** With `Cc1noc(/C=C/N(C)C)c1S(=O)(=O)N1CCCC(C(=O)NCc2ccc(F)cc2)C1` (stereo not given) as the compound, how does the AC50 [1] read?
**A.** 12.6 µM [falling, partial curve]

**Q.** With `Cc1ccccc1CSc1nc(-c2ccccc2)nc2c1Cc1c(CO)cnc(C)c1O2` as the compound, how does the AC50 [1] read?
**A.** 0.126 µM [falling, full curve, poor fit]

**Q.** With `Nc1c(C(=O)NC2CCCCC2)nsc1C(=O)OCC(=O)NC1CCCCC1` as the compound, how does the AC50 [1] read?
**A.** 0.0631 µM [falling, full curve]

**Q.** With `COc1cccc(-c2cc(C(=O)NCc3ccccc3)[nH]n2)c1` as the compound, how does the AC50 [1] read?
**A.** 15.8 µM [falling, partial curve]

**Q.** Which AC50 [1] does the source give for `CCOc1ccc(C(C)C)cc1S(=O)(=O)Nc1cccc(-c2ccc(N3CCOCC3)nn2)c1` here?
**A.** 0.1 µM [falling, full curve]

**Q.** For `Cc1ccc(NC(=O)C(Cc2ccccc2)NS(=O)(=O)c2ccc3c(c2)c(=O)n(C)c(=O)n3C)cc1` (stereo not given), which AC50 [1] is on record?
**A.** 15.8 µM [falling, partial curve]

**Q.** Which AC50 [1] does the source give for `CCN(C(=O)c1cc(S(=O)(=O)N2CCOCC2)cn1C)c1ccc(OC)cc1` here?
**A.** 2.51 µM [falling, partial curve, poor fit]

**Q.** With `CCCC(=O)Oc1c(Sc2ccc(Cl)cc2)c(C)nn1-c1ccccc1` as the compound, how does the AC50 [1] read?
**A.** 3.16 µM [falling, partial curve]

**Q.** Which AC50 [1] does the source give for `Cc1cc(NC(=O)CSc2cn(CCNC(=O)c3ccc(F)cc3)c3ccccc23)no1` here?
**A.** 25.1 µM [falling, partial curve]

**Q.** Which AC50 [1] does the source give for `O=C(Nc1cccc(F)c1)C1CC(=O)N(c2ccc(Br)cc2)C1` (stereo not given) here?
**A.** 12.6 µM [falling, partial curve]
